Source: patent US20200407449A1
No constants are given. Whether binding was seen depends on the method and setting. Some results given as binding are weak or reduced against the parent protein; the word gives no strength.

Assays:
[1] = target: T1, human VISTA expressed on CHO-K1 cells (human) (UniProt Q9H7M9); test: flow cytometry, IgG at 2 ug/ml on CHO-K1 cells overexpressing human VISTA
T1 sequence (looked up): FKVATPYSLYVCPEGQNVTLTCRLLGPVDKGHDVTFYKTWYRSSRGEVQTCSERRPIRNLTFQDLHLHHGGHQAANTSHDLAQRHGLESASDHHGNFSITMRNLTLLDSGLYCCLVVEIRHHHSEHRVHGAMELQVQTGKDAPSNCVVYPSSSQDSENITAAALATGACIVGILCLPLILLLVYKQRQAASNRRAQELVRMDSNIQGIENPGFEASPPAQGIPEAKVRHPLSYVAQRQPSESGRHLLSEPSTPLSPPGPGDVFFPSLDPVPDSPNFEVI

[2] = target: T1, human VISTA expressed on CHO-K1 cells (human); test: flow cytometry, IgG at 2 ug/ml on CHO-K1 cells over-expressing human VISTA, anti-human IgG-Fc-PE
[3] = target: T1, human VISTA expressed on CHO-K1 cells (human); test: flow cytometry, scFv phage on CHO-K1 cells overexpressing human VISTA
[4] = target: T1, human VISTA expressed on CHO-K1 cells (human); test: flow cytometry, scFv phage supernatant on CHO-K1 cells expressing human VISTA, anti-M13 then anti-mouse IgG-PE

B1: anti-VISTA antibody 1A12 (IgG form) (antibody, V domains shown)
VH: QMQLVESGGGLVEPGRSLRLSCTTSGFSFHDYTMYWVRQVPGKGLEWVSLISWDGTITFYADPVRGRFTISRDNSKNSLYLQMNSLRAEDTAVYYCAKEDRYDYYSGAFDIWGQGTVVTVSS
VL: QSALTQPRSVSGSPGQSVTISCTGTSSDVGGYDYVSWYQQHPGKAPKLILNDVNKRPSGVPDRFSGSKSGNTASLTISGLQPDDEADYYCSSFAGSNTLRVFGGGTKLTVLG
[1]
  binding: binds
[2]
  binding: binds

B2: 1A12 monoclonal scFv phage (scFv, V domains shown)
VH: QMQLVESGGGLVEPGRSLRLSCTTSGFSFHDYTMYWVRQVPGKGLEWVSLISWDGTITFYADPVRGRFTISRDNSKNSLYLQMNSLRAEDTAVYYCAKEDRYDYYSGAFDIWGQGTVVTVSS
VL: QSALTQPRSVSGSPGQSVTISCTGTSSDVGGYDYVSWYQQHPGKAPKLILNDVNKRPSGVPDRFSGSKSGNTASLTISGLQPDDEADYYCSSFAGSNTLRVFGGGTKLTVLG
[3]
  binding: binds
[4]
  binding: binds
